Measurements reported in PubChem BioAssay AID1259254 (NCATS, 2017).

Screen: 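Finding genes that stop cells copying their DNA twice in one cycle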 (primary screen)
Cell system: human HCT116 colorectal cancer cells
Reagent: single siRNA against human genes
Timing: 3 days
Read-out: 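Imaged Hoechst DNA stain sorts each cell into a cycle phase by DNA amount; per plate, G2 fraction set to 0% for non-targeting and 100% for GMNN siRNA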
Reading the numbers: G2 robust z-score: higher = more G2 cells, more excess DNA replication
Active means: 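Active siRNAs have a G2 robust z of 5 or more median absolute deviations over the median, which in these data means about 38% or higher of GMNN control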
In all, the deposit lists about 59,000 reagents; shown is a part drawn at random. In the full data, about 1,550 (2.6%) are marked active. 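G2 share is only a proxy for re-replication; each gene was hit by three separate siRNAs, and active genes were retested.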 Further read-outs or replicates are left out here. Not stated in the record: the amount of reagent.

gene knocked down	PubChem SID	G2 robust z-score	activity call
GNPNAT1	SID160748050	-0.107	inactive
GNPNAT1	SID160748051	1.15	inactive
GNPNAT1	SID160748052	0.478	inactive
CSNK2A2	SID160749502	-0.852	inactive
CSNK2A2	SID160749512	0.73	inactive
CSNK2A2	SID160749523	-0.339	inactive
HLA-DQA2	SID160775001	3.83	inactive
HLA-DQA2	SID160775002	-0.185	inactive
HLA-DQA2	SID160775003	0.341	inactive
C1R	SID160729574	-0.765	inactive
C1R	SID160729582	0.505	inactive
C1R	SID160729592	2.08	inactive
ZNF287	SID160745892	-0.339	inactive
ZNF287	SID160745893	0.403	inactive
ZNF287	SID160745894	0.654	inactive
NFYC	SID160778051	-0.194	inactive
NFYC	SID160778052	2.35	inactive
NFYC	SID160778053	-0.582	inactive
HS6ST3	SID160762677	0.314	inactive
HS6ST3	SID160762678	0.304	inactive
HS6ST3	SID160762679	-0.741	inactive
DHX38	SID160723081	0.166	inactive
DHX38	SID160723082	-0.907	inactive
DHX38	SID160723083	0.0337	inactive
EPAS1	SID160760583	-0.938	inactive
EPAS1	SID160760593	0.684	inactive
EPAS1	SID160760605	0.0815	inactive
TC2N	SID160756045	2.49	inactive
TC2N	SID160756046	0.37	inactive
TC2N	SID160756048	0.357	inactive
SH2D7	SID160770053	-0.421	inactive
SH2D7	SID160770054	-0.638	inactive
SH2D7	SID160770055	5.02	active
NEURL4	SID160752300	6.51	active
NEURL4	SID160752302	1.31	inactive
NEURL4	SID160752303	-0.824	inactive
CUL4B	SID160720066	0.784	inactive
CUL4B	SID160720067	0.177	inactive
CUL4B	SID160720068	-0.633	inactive
EEF1A2	SID160758304	1.86	inactive
EEF1A2	SID160758314	1.42	inactive
EEF1A2	SID160758325	0.181	inactive
SNAI3	SID160763965	0.163	inactive
SNAI3	SID160763966	0.259	inactive
SNAI3	SID160763967	-0.706	inactive
TRADD	SID160720662	1.08	inactive
TRADD	SID160720663	-0.257	inactive
TRADD	SID160720664	-0.747	inactive
TRIM36	SID160724462	3.97	inactive
TRIM36	SID160731510	1.32	inactive
TRIM36	SID160731511	8.56	active
UBR2	SID160735959	0.318	inactive
UBR2	SID160735960	-0.443	inactive
UBR2	SID160735961	-1	inactive
MCMBP	SID160749712	0.00484	inactive
MCMBP	SID160749713	-0.616	inactive
MCMBP	SID160749714	3.31	inactive
GSTO1	SID160722227	-0.493	inactive
GSTO1	SID160722229	-0.711	inactive
GSTO1	SID160722230	-0.4	inactive
LOC401410 (retired record)	SID160733343	-1.28	inactive
LOC401410 (retired record)	SID160767276	-0.764	inactive
LOC401410 (retired record)	SID160767277	2.58	inactive
MDK	SID160777088	0.675	inactive
MDK	SID160777089	-0.187	inactive
MDK	SID160777090	-1.16	inactive
SMYD3	SID160747900	0.0647	inactive
SMYD3	SID160747901	-0.12	inactive
SMYD3	SID160747902	-0.768	inactive

11 of these entries in another layout.
{"gene knocked down":"C1R","PubChem SID":"SID160729582","G2 robust z-score":0.505,"activity call":"inactive"}
{"gene knocked down":"C1R","PubChem SID":"SID160729592","G2 robust z-score":2.08,"activity call":"inactive"}
{"gene knocked down":"ZNF287","PubChem SID":"SID160745892","G2 robust z-score":-0.339,"activity call":"inactive"}
{"gene knocked down":"ZNF287","PubChem SID":"SID160745893","G2 robust z-score":0.403,"activity call":"inactive"}
{"gene knocked down":"ZNF287","PubChem SID":"SID160745894","G2 robust z-score":0.654,"activity call":"inactive"}
{"gene knocked down":"NFYC","PubChem SID":"SID160778051","G2 robust z-score":-0.194,"activity call":"inactive"}
{"gene knocked down":"NFYC","PubChem SID":"SID160778052","G2 robust z-score":2.35,"activity call":"inactive"}
{"gene knocked down":"NFYC","PubChem SID":"SID160778053","G2 robust z-score":-0.582,"activity call":"inactive"}
{"gene knocked down":"HS6ST3","PubChem SID":"SID160762677","G2 robust z-score":0.314,"activity call":"inactive"}
{"gene knocked down":"HS6ST3","PubChem SID":"SID160762678","G2 robust z-score":0.304,"activity call":"inactive"}
{"gene knocked down":"HS6ST3","PubChem SID":"SID160762679","G2 robust z-score":-0.741,"activity call":"inactive"}
